# PMC9896067 (Advanced Science, 2022)
# HELM strings list residues between dots; [ac] is acetyl, [am] amide, other brackets name non-standard units.
# Experiment: general procedure: Fmoc solid-phase peptide synthesis
# Conditions: whole synthesis
substance,measurement,value
PEPTIDE1{[BP].C.F.F.F.V.L.K.L.A.K.L.A.K.D.E.V.D.A.K.R.G.A.R.S.T.A}$$$$V2.0,final HPLC purity,96%
